Assay results from patent publication US20220298212A1.
No constants are given. Whether binding was seen depends on the method and setting. Some entries that bind do so weakly or less than the wild type.

Sequences of proteins named here, by UniProt entry; tags and fusion partners are left off. A change or cut given only in a name is not applied to a line headed by its entry.
UniProt Q07011: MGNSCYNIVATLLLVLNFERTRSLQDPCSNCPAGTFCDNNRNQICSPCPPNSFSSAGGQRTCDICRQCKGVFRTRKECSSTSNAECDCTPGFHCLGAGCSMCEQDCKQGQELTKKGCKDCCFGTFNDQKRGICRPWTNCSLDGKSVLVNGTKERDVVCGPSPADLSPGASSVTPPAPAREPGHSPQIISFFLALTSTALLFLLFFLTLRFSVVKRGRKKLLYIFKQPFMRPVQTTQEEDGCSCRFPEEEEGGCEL

Tests used:
[1] = target: cell membrane-bound human 4-1BB (endogenous, on ionomycin/PMA stimulated CCRF-CEM cells or primary CD8+ T cells) (human) (UniProt Q07011); test: flow cytometry on PMA/ionomycin stimulated CEM cells (FIG. 8A)
[2] = target: cell membrane-bound human 4-1BB (endogenous, on ionomycin/PMA stimulated CCRF-CEM cells or primary CD8+ T cells) (human) (UniProt Q07011); test: flow cytometry on PMA/ionomycin stimulated CEM cells, anti-penta-His Alexa Fluor-488 detection

B1: DARPin® protein #51 (designed binder, not shown: small tags and cut ends)
chain: GSDLGQKLLKAAQEGQDDEVRELLKAGADVNAKDLRGITPLHVAAWQGHLEIVEVLLKAGADVNAKDSKGETPLHLAAFRGHLEIVEVLLKAGADVNAQDQQGETPADLAALAGHVDIAEVLQKLNGSPTPTPTTPTPTPTTPTPTPTGSDLGQKLLKAAQEGQDDEVRELLKAGADVNAKDLRGITPLHVAAWQGHLEIVEVLLKAGADVNAKDSKGETPLHLAAFRGHLEIVEVLLKAGADVNAQDQQGETPADLAALAGHVDIAEVLQKLN
binding [1]: binds | binding [2]: binds

B2: DARPin® protein #54 (designed binder, not shown: small tags and cut ends)
chain: GSDLGQKLLKAAQEGQDDEVRELLKAGADVNAKDLRGITPLHVAAWQGHLEIVEVLLKAGADVNAKDSKGETPLHLAAFRGHLEIVEVLLKAGADVNAQDQQGETPADLAALAGHVDIAEVLQKLNGSPTPTPTTPTPTPTTPTPTPTGSDLGQKLLKAAQEGQDDEVRELLKAGADVNAKDLRGITPLHVAAWQGHLEIVEVLLKAGADVNAKDSKGETPLHLAAFRGHLEIVEVLLKAGADVNAQDQQGETPADLAALAGHVDIAEVLQKLNGSPTPTPTTPTPTPTTPTPTPTGSDLGQKLLKAAQEGQDDEVRELLKAGADVNAKDLRGITPLHVAAWQGHLEIVEVLLKAGADVNAKDSKGETPLHLAAFRGHLEIVEVLLKAGADVNAQDQQGETPADLAALAGHVDIAEVLQKLN
binding [1]: binds | binding [2]: binds
